For at least one compound, name, drawing or mass did not settle the structure.
What was measured:
[1] = tested on: humans; conditions: moderate dose (86); cited from earlier work
[2] = tested on: healthy subjects; assay: 5-Dimensional Altered States of Consciousness (5D-ASC) scale, Clinical Study I; format: in vivo, human; conditions: LSD 100 μg, psilocybin 20 mg; 6 subjects
Description: 5-Dimensional Altered States of Consciousness (5D-ASC): The 5-dimensional Altered States of Consciousness (5D-ASC) Scale is a visual analog scale consisting of 94 items (117, 118). The instrument contains five main scales (FIG. 6A) and 11 newer subscales (FIG. 6B) assessing mood, anxiety, derealization, depersonalization, changes in perception, auditory alterations, and reduced vigilance. The scale is well-validated (118). The 5D-ASC scale was administered once at the end of the session and subjects were instructed to retrospectively rate peak alterations that have been experienced during the study session. Each item of the scale is scored on a 0-100 mm VAS. The attribution of the individual items to the subscales of the 5D-ASC was analyzed according to (117, 118) and as shown in FIGS. 6A-6B. The scale was be administered once at the end of each test session.

Protein sequences, listed by entry. Tags and fused reporters are not part of them.
UniProt P14416, whole entry: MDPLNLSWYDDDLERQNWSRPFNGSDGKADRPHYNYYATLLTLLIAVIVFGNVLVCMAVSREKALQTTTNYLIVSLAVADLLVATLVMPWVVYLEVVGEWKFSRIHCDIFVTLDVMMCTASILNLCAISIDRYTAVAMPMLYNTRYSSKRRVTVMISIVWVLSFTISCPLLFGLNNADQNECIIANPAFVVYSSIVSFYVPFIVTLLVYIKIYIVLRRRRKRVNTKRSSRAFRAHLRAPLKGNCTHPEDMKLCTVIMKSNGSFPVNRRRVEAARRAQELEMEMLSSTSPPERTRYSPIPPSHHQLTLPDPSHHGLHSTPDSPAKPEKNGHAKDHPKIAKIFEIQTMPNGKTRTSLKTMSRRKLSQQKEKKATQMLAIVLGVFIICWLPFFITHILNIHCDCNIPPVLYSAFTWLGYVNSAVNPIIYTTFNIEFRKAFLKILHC

[3] = tested on: healthy subjects; assay: Visual Analog Scales (VAS) of acute subjective effects, Clinical Study I
[4] = target: D2 receptors (Homo sapiens, UniProt P14416); conditions: FIG. 3; cited from earlier work

CN(C)CCc1c[nH]c2cccc(OP(=O)(O)O)c12 [psilocybin]
subjective effect duration [1]: 4 to 6 h | overall peak effects (total 3D-OAV scores) [2]: equally strong overall peak effects | ego-dissolution (VAS) ([3]; doses used): mostly increased | stimulated (VAS) ([3]; doses used): greater stimulation than mescaline | duration of subjective effects (VAS any drug effect) ([3]; six healthy volunteers, mescaline 300 mg, psilocybin 20 mg, LSD 100 μg oral): lasted less long compared with LSD and mescaline | affinity for D2 receptors [4]: no affinity

From patent US20220265582A1, “EFFECTS OF MESCALINE AND OF MESCALINE ANALOGS (SCALINES) TO ASSIST PSYCHOTHERAPY” (Universitätsspital Basel, priority 2021, published 2022)
